These results are taken from publication PMC10805489.

Sequences of proteins named here, by UniProt entry; tags and fusion partners are left off.
UniProt Q99497: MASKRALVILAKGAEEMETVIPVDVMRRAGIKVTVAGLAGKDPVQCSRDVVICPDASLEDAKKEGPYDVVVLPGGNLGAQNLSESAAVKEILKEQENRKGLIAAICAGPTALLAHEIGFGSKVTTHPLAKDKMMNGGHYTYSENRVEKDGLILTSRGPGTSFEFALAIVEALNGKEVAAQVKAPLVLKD

Results are given in words; binding and its absence hold for the method and conditions named. In cells and extracts the contact can be indirect. Some entries that bind do so weakly or less than the wild type. Tags and fused reporters may be left off the sequences shown.

Assay [1] addresses T1, FK506-binding protein 3 (FKBP3), FKBP3-flag (UniProt Q00688).
T1 sequence: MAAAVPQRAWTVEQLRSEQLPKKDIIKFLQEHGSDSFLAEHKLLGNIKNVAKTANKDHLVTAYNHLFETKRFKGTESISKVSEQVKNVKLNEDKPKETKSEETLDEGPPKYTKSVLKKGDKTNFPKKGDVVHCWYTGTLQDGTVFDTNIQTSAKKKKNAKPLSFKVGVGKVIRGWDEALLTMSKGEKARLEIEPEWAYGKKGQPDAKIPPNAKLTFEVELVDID
The experiment in a line: co-IP; Flag tag or HA tag antibody coupled to AminoLink Plus Coupling Resin, incubated 2 h with RIPA lysate of DB cells transfected with oeFKBP3 and oePARK7; blots with HA or Flag tag antibody.

For assay [2], the target named is parkinsonism associated deglycase (PARK7), PARK7-HA (UniProt Q99497). The assay is described as above.

On to “parkinsonism associated deglycase (PARK7), PARK7-HA (from UniProt Q99497 1-189)”, for which, in assay [1], the binding entry was “binds”.

B1: FK506-binding protein 3 (FKBP3), FKBP3-flag (protein, UniProt Q00688 1-224)
chain: T1 sequence
Turning to B1, the binding entry in assay [2] is listed as “binds”.
